The nature of the assay: qHTS Assay for Lipid Storage Modulators in Drosophila S3 Cells.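 As to cell number change: cells counted by Cell Tracker Red CMTPX staining in the red channel.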 The note with it: BODIPY lipid droplet fluorescence, 18-24 h; for cell number change: measured here: cell count max response, cells fed with added oleic acid. An excerpt:
NIH Molecular Libraries Probe Production Centers Network [MLPCN] NIH Chemical Genomics Center [NCGC] MLPCN Grant: 1 R03 MH085686-01 Assay Submitter (PI): Beller, Mathias; Max-Planck-Institut fur Biophysikalische Chemie NCGC Assay Overview: Storing lipids as a reservoir for energy or the anabolism of elementary metabolites is a common feature of probably all cells and is conserved from bacteria to humans. The universal cellular lipid storage organelle is the so-called lipid storage droplet (LD). Although ubiquitous, LDs share a simple structure composed of a hydrophobic core that harbors the storage lipids, which is shielded by a droplet-specific phospholipid monolayer to which proteins are attached. The current model of LD biogenesis involves an incorporation of the lipid core into the membrane leaflets of the endoplasmic reticulum (ER) followed by a subsequent budding-like maturation of a LD, which ultimately pinches off. Once released, LD volume can increase by localized lipogenesis or fusion of existing droplet. Storage lipids are re-mobilized enzymatically by lipase activity. Lipase regulation in the adipocyte is heavily studied and involves multiple components including catecholamine signaling, the LD-associated proteins Perilipin and comparative gene identification (CGI-58) and at least two lipases named hormone sensitive lipase (HSL) and adipocyte triglyceride lipase (ATGL). LD regulation outside of the adipocyte is poorly understood and only few components are known. However, there is an urgent need to learn more about ectopic fat depots as mislocalized storage of lipids, for example in the liver or muscle, is an eminent health problem associated with insulin resistance or the metabolic syndrome. We developed a laser-scanning cytometer assay to enable 1,536-well screening and combined the results of the small molecules screen with an RNAi database based on lipid storage.
Triacsin C (Sigma-Aldrich T-4540), an inhibitor of long-chain fatty acyl CoA synthetase that blocks synthesis of triglycerides, was used as a positive control for lipid under-storage. A total of 23 nL of compound solution of different concentrations were transferred to the assay plates using a Kalypsys pin tool equipped with a 1,536-pin array containing 10-nL slotted pins (FP1S10, 0.457-mm diameter, 50.8 mm long; V&P Scientific). One microliter of oleic acid (400 uM) was added, and the plate was lidded with stainless steel rubber gasket lined lids containing pinholes. […] Fluorescence was detected by excitation of the fluorophores with a 488-nm laser on an Acumen Explorer (TTP Lab Tech). The total intensity in channel 2 (500-530 nm) reflected lipid droplet accumulation. Cells were detected using channel 3 (575-640 nm) with 5-um width and 100-um depth filters. The ratio of the number of objects in PMT channel 2 over the number of objects in PMT channel 3 was also calculated. Percent activity was computed relative to an internal control (100% inhibited lipid droplet deposition due to the presence of 20 uM Triacsin C), which was added to 32 wells/plate.
For orientation: qHTS replaces the single test concentration by a dilution series.

The mark [1] stands for this setting: measured here: cell number channel AC50, cells fed with added oleic acid.
Where [2] appears, read: measured here: lipid fluorescence (Fed channel) AC50, cells fed with added oleic acid.

The other results are listed elsewhere or left out. Shown are side measurements of this screen, not its main read-out; they come without a call. The list favours compounds with an active or inconclusive main result. Words in brackets tell the shape of the fitted curve; partial curves, single points and poor fits give uncertain potencies.

The results in this text go back to PubChem BioAssay AID2685 (National Center for Advancing Translational Sciences (NCATS), 2010).

The term AC50 denotes the midpoint of the concentration-response curve, whichever way the signal moves. High values mean activity only at high concentration, low ones activity at low concentration. `COc1ccc(COCCN2CCN(S(=O)(=O)c3ccc(C)cc3)CCC2=O)cc1`: the cell number change amounted to 36.6%. In addition, the AC50 under setting [1] is 14.6 µM [rising, partial curve]. The half-maximal activity concentration (AC50) under setting [2] was 16.4 µM [rising, partial curve].
`COc1ccc(-c2cc(C)no2)cc1S(=O)(=O)N1CCN(c2ccccn2)CC1`: the cell number change was -1.18%. Besides, the half-maximal activity concentration (AC50) under setting [1] is 2.91 µM [rising, partial curve]. The AC50 under setting [2] is 16.4 µM [falling, single point].
For `COC(=O)c1c(C)[nH]c(C)c1-c1ccc([N+](=O)[O-])cc1`, the cell number change was -6.62%.
Regarding `CSc1ccccc1C(=O)N1CCN(c2ncccn2)CC1`, the cell number change is 28.1%. Also, the half-maximal activity concentration (AC50) under setting [2] was 18.4 µM [rising, partial curve].
On to `CC(=O)OC[C@H]1O[C@@H](n2ncc(=O)[nH]c2=O)[C@H](OC(C)=O)[C@@H]1OC(C)=O`, for which the cell number change was -18.5%. Also, the AC50 under setting [2] is 29.1 µM [falling, single point].
With `COc1cc(-c2cc(=O)c3c(O)c(OC)c(OC)c(O)c3o2)ccc1O`, the cell number change was -12.4%. For the same compound, the concentration at half-maximal activity (AC50) under setting [2] was 23.1 µM [falling, single point].
For `O=C1C(=O)N(CCO)C(c2ccccc2)/C1=C(\O)c1ccccc1` (stereo not drawn), the cell number change came to 0.368%.
Same read-out and setting: to `COC(=O)c1ccccc1NC(=O)CNCCc1ccc(OC)c(OC)c1` belongs 9.21%.
With `Cc1ccc(C(=O)N(Nc2nc3ccccc3s2)C(=O)c2ccc(C)cc2)cc1`, the cell number change worked out at 58.9%. The AC50 under setting [1] is 18.4 µM [rising, partial curve, poor fit].
Consider `Fc1ccc(NC(=S)Nc2ccccc2Cl)cc1`, for which the cell number change was -35.3%. Under setting [1], the concentration at half-maximal activity (AC50) is 23.1 µM [falling, partial curve, poor fit].
`CCc1ccccc1NC(=O)COc1ccc(N2CC(C(N)=O)CC2=O)cc1` (stereo not drawn): the cell number change was 13.5%. Also, under setting [2], the AC50 is 2.91 µM [rising, single point].
`Cc1cccc(NC(=O)CN2C(=O)CCS(=O)(=O)c3ccccc32)c1C`: the AC50 under setting [2] is 3.26 µM [falling, single point].
On to `CC(=O)c1ccccc1NS(=O)(=O)c1ccccc1Cl`, for which, under setting [1], the AC50 is 3.66 µM [falling, single point].
In the case of `CCn1c(SCC(=O)Nc2ccc3c(c2)OCCO3)nnc1-c1cccs1`, the cell number change came to 16.4%. Moreover, the AC50 under setting [2] was 0.58 µM [rising, full curve].
Take `COCCn1c(SCC(=O)Nc2ccc(C(C)=O)cc2)nc2c([nH]c3ccccc32)c1=O`: the cell number change worked out at 3.03%. Moreover, under setting [2], the AC50 is 20.6 µM [falling, single point].
Regarding `O=C(O)CCCC(=O)Nc1ccc(C(=O)N2CCCCC2)cc1`, the cell number change was -10.7%. Under setting [2], the AC50 is 3.66 µM [falling, partial curve].
In the case of `Cc1cc(C)c(N(C(=O)c2csnn2)C(C(=O)NC2CCCC2)c2ccncc2)c(C)c1` (stereo not drawn), the cell number change amounted to 5.13%.
Regarding `O=C(COC(=O)C1(c2ccc(F)cc2)CCCC1)NC1CC1`, under setting [1], the AC50 was 0.0731 µM [falling, full curve, poor fit].
Turning to `COc1cccc(-c2nc(CS(=O)(=O)CC(=O)NCCCN3C(C)CCCC3C)c(C)o2)c1` (stereo not drawn), the cell number change turned out to be 61.2%. In addition, under setting [1], the AC50 is 29.1 µM [rising, single point].
In the case of `N#Cc1c(-c2ccc(Cl)cc2)nc2n(c1=O)CCCS2`, the cell number change is -0.891%. Further, under setting [2], the AC50 was 6.51 µM [rising, partial curve, poor fit].
In the case of `O=C(Cn1cnc(S(=O)(=O)N2CCCCC2)c1)Nc1ccc(OC(F)(F)F)cc1`, the cell number change was found to be 16%.
For the compound `C/C=C/Cn1c(SCc2ccc(Cl)cc2)nc2c1c(=O)[nH]c(=O)n2C`, the cell number change was 31%. Besides, the AC50 under setting [1] was 0.517 µM [rising, partial curve]. For the same compound, under setting [2], the AC50 is 1.46 µM [rising, full curve].
For the compound `Nc1nccc(-c2ccc(-n3cccc3)cc2)n1`, the cell number change was determined as 36.9%. The AC50 under setting [1] was 2.06 µM [rising, partial curve, poor fit]. Besides, under setting [2], the AC50 is 29.1 µM [rising, single point].
As to `COC(=O)c1ccc(COC(=O)[C@@H]2CC(O)CN2S(=O)(=O)c2ccccc2[N+](=O)[O-])cc1` (stereo partly drawn), the AC50 under setting [2] was 29.1 µM [rising, single point].
Turning to `Cc1cc(Cl)c(OCCCCN2CCOCC2)c(Br)c1`, the cell number change is 13.4%. Further, under setting [2], the AC50 was 29.1 µM [rising, single point].
For `COc1cc(CNCCCN2CCOCC2)c(Br)cc1OC(C)C`, the cell number change was 25.3%. Further, the AC50 under setting [1] is 0.00461 µM [rising, full curve, poor fit]. Also, the concentration at half-maximal activity (AC50) under setting [2] is 29.1 µM [rising, single point].
Consider `CN(C(=O)COC(=O)c1ccccc1OCc1ccc(F)cc1)C1CCS(=O)(=O)C1` (stereo not drawn), for which the cell number change was -9.24%. For the same compound, the AC50 under setting [2] was 0.13 µM [rising, full curve, poor fit].
Regarding `Cc1onc(-c2c(Cl)cccc2Cl)c1C(=O)O/N=C(\C#N)c1c(Cl)cccc1Cl`, the cell number change was -8.04%.
As to `O=C(CCl)Nc1cccc2ncccc12`, the cell number change was -7.87%. Moreover, the AC50 under setting [2] was 20.6 µM [falling, partial curve].
As to `COc1ccc(NC(=O)CN2CCN(c3nc(-c4cccc(OC)c4)cs3)CC2)cc1`, the cell number change was -15.1%. For the same compound, the AC50 under setting [2] was 29.1 µM [falling, single point].
As to `CCC(C)c1ccccc1N1CC(C(=O)NCCC2=CCCCC2)CC1=O` (stereo not drawn), the cell number change was -31.1%. Under setting [1], the AC50 is 32.6 µM [falling, single point].
Regarding `O=C(NCc1ccco1)c1c(F)cccc1Cl`, the cell number change is -63.9%. In addition, the AC50 under setting [1] was 32.6 µM [falling, single point]. For the same compound, the AC50 under setting [2] is 29.1 µM [falling, single point].
For `CCOc1ccccc1C(=O)NCC(=O)OCc1csc(CC(=O)Nc2ccc(C)cc2)n1`, the cell number change is -8.02%. Besides, under setting [2], the AC50 is 1.03 µM [falling, full curve].
Take `O=C1C2CCCN2C(=O)N1CCCCN1CCN(CCO)CC1` (stereo not drawn): the cell number change is -9.51%. Besides, the AC50 under setting [2] is 1.84 µM [rising, full curve, poor fit].
Take `Cc1nnc(Nc2ccccc2)n(N)c1=O`: the cell number change came out at 10.1%. The AC50 under setting [2] was 18.4 µM [rising, single point].
In the case of `CC(C)(/C=N/NC(=O)CSCc1ccccc1Cl)CCC#N`, the cell number change was 33.1%. Besides, under setting [1], the AC50 is 20.6 µM [rising, single point].
`COc1ccccc1Oc1ccc2c(c1)C(=O)N(c1cccc3ncccc13)C2=O`: the cell number change was -24.9%. Also, under setting [1], the AC50 is 0.291 µM [falling, full curve, poor fit]. Further, under setting [2], the AC50 is 16.4 µM [falling, partial curve].
For `CCNC(=S)N(CCc1cccc(C)c1)Cc1cc2cc(OC)c(OC)cc2[nH]c1=O`, the cell number change was determined as 7.48%. The AC50 under setting [2] was 2.31 µM [rising, single point].
